According to patent US20210079095A1:
These are yes or no findings as the source states them, for the method shown. Binding calls can cover weak binding; strength is not graded here.

Tests used:
[1] = molecular target: bovine PD-L1-EGFP (on bovine PD-L1-EGFP expressing cells) (bovine); test: flow cytometry on stably expressing CHO-DG44 cells
[2] = molecular target: canine PD-L1 (endogenous, in canine tumor tissue sections) (canine); test: immunohistochemical staining of canine melanoma (FIG. 3)
[3] = molecular target: canine PD-L1-EGFP (on canine PD-L1-EGFP expressing cells) (canine); test: flow cytometry on stably expressing CHO-DG44 cells (FIG. 11)
[4] = molecular target: bovine PD-L1-EGFP (on bovine PD-L1-EGFP expressing cells) (bovine); test: flow cytometry on stably expressing CHO-DG44 cells (FIG. 15)
[5] = molecular target: bovine PD-L1 (endogenous, in bovine ileal tissue) (bovine); test: immunohistochemical staining of bovine ileal lesions (FIG. 16)
[6] = molecular target: canine PD-L1-EGFP (on canine PD-L1-EGFP expressing cells) (canine); test: flow cytometry on transfected COS-7 cells, 10 µg/ml antibody (FIG. 1)
[7] = molecular target: canine PD-L1 (endogenous, in canine tumor tissue sections) (canine); test: immunohistochemical staining of six canine tumor types (FIGS. 12 and 13)
[8] = molecular target: canine PD-L1 (endogenous, in canine tumor tissue sections) (canine); test: immunohistochemical staining of canine melanoma, 400-fold dilution (FIG. 3)
[9] = molecular target: ovine PD-L1 (endogenous, in ovine brain lesion tissue) (ovine); test: immunohistochemical staining of a brain lesion of ovine listeriosis (FIG. 6)
[10] = molecular target: bovine PD-L1 (endogenous, in bovine ileal tissue) (bovine); test: immunohistochemical staining of bovine ileal lesions, 400-fold dilution (FIG. 16)
[11] = molecular target: porcine PD-L1 (endogenous, in porcine infected tissue) (porcine); test: immunohistochemical staining, case of porcine mycoplasma pneumonia (FIG. 7, right)
[12] = molecular target: porcine PD-L1 (endogenous, in porcine infected tissue) (porcine); test: immunohistochemical staining, case of porcine circovirus type 2 infection (FIG. 7, left)
[13] = molecular target: canine PD-L1 (endogenous, in canine tumor tissue sections) (canine); test: immunohistochemical staining of canine melanoma, lymphoma, osteosarcoma and renal cell carcinoma
[14] = molecular target: canine PD-L1 (endogenous, in canine tumor tissue sections) (canine); test: immunohistochemical staining of canine anal sac gland carcinoma, soft tissue sarcoma and osteosarcoma (FIG. 13)
[15] = molecular target: canine PD-L1 (endogenous, in canine tumor tissue sections) (canine); test: immunohistochemical staining of canine skin squamous cell carcinoma, nasal adenocarcinoma and transitional cell carcinoma (FIG. 12)
[16] = molecular target: canine PD-L1 (endogenous, in canine tumor tissue sections) (canine); test: immunohistochemical staining of canine oral malignant melanoma, mammary adenocarcinoma, histiocytic sarcoma and diffuse large B-cell lymphoma (FIG. 14)

Measured: binding

B1: rat anti-bovine PD-L1 antibody 6C11-3A11 (antibody, IgG2a, V domains shown)
VH: QVKLLQSGAALVKPGDSVKMSCKASGYTFTDYIIHWVKQSHGKSLEWIGYINPDSGGNNYNEKFKSKATLTVDKSSSTAYMEFSRLTSEDSAIYYCARGITMMVVISHWKFDFWGPGTMVTVSS
VL: DVQMTQSPSNLAASPGESVSINCKASKSISKYLAWYQQKPGKANKLLIYSGSTLQSGTPSRFSGSGSGTDFTLTIRNLEPEDFGLYYCQQHNEYPLTFGSGTKLEIKR
binds: [1] | [2] | [3] | [4] | [5] | [6] | [7] | [8] | [9] | [10] | [11] | [12] | [13] | [14] | [15] | [16]
